At least one compound was matched to its structure with a doubt left.
Tested on: monoclonal antibody 6A1A6 (metal dependent catalytic antibody, IgG)
Assay: Spectrophotometric (405 nm) hydrolysis of p-nitrophenyl ester substrates by antibody 6A1A6
Type: biochemical, mice
Conditions: reaction conditions identical to pNPPT (10 mM MgCl2, pH 9.0, 25° C.)
Experimental: General. Because antibody 6A1A6, see Table 2, was metal dependent, a few precautions were taken to insure consistent results for all assays. […] EDTA was added to reactions to a concentration that removed the catalytic activity. MgCl2 or other metal salts were then added back to the reactions at the optimum level. Antibody concentration was adjusted for each system to obtain useable data in a reasonable reaction time and varied from 0.5-4 μM.
Kinetic analyses were done by standard methods as described. Rates were defined as initial velocities and reported in min^-1 or sec^-1. Each assay was done in duplicate or triplicate to allow for error analysis. Background rates were measured using an identical reaction mixture without antibody present. Michales-Menten parameters kcat and Km were derived from Eadie-Hofstee or weighted Lineweaver-Burk plots (using the computer program Enzyme Kinetics 1.0, Macintosh, Trinity Software). Inhibitory constants, Ki, were derived from Dixon or Lineweaver-Burk plots.
p-Nitrophenyl Esters as Substrates. […] This assay was fast, reproducible and much more trouble free than the fluorescence assays. […]
Antibody 6A1A6 was assayed spectrophotometrically for its ability to cleave the above mentioned substrates containing the p-nitrophenyl leaving group at 405 nm using a Molecular Devices Vmax® kinetic microplate reader. […]

`O=[N+]([O-])c1ccc(OP(=O)(O)O)cc1` [pNPP, p-nitrophenyl phosphate] was tested, and the “Kcat, pNPP as substrate” value was 0.424±0.042 min^-1 and the Km (read-out: Km, pNPP as substrate) was 357 ± 54 µM.
